Measurements published in patent US20040138169A1, “Composition and use of substances for stabilising amino acids containing sulphur” (priority 2001, published 2004).

Test system: HCY-concentration in whole blood
Test: Stabilization of the homocysteine (HCY) concentration in withdrawn whole blood stored in monovettes with stabilizer
Assay type: cell-based
Conditions: for HCY VK (variation coefficient): over the HCY stabilization duration, room temperature
Experimental: Material Used and Processes
The following inhibitors of methyl transferase or S-adenosylhomocysteine hydrolase have been tested
The effectiveness of the inhibitors have been tested in combination with the following acids:
The compositions of further reagents have been:
Mixture A: 5(4)-AMCA (5.2 mg) and DEOA (3.2 mg), dissolved in 500 μl phosphate buffer.
Composition of the buffer for mixture A:
All other substances have been dissolved in water.
Blood Withdrawal and Treatment of Samples
Corresponding amounts of stabilizers have been provided in EDTA- or Na-heparin-monovettes for each Example or Comparative Example (see Table 1). The blood withdrawal has been carried out in monovettes with and without stabilizers. For the control value, the monovettes have been centrifuged within 30 minutes after withdrawal.

Compound	variations of the measured values, homocysteine (in 60 hours)	HCY VK (variation coefficient) (whole blood)	variation coefficient VK of HCY (whole blood, 143 hours) [%]
Nc1nccc2c1ncn2[C@@H]1O[C@H](CO)[C@@H](O)[C@H]1O [Cmp.-Ex. 1, 3-deazaadenosin]	up to 2 μmol/l	(VK: 6%)	
O=C1O[C@H]([C@@H](O)CO)C(O)=C1O [Cmp.-Ex. 2, ascorbic acid]		(VK: 8%)	
O=C(O)/C=C/C(=O)O [Cmp.-Ex. 3, fumaric acid]		(VK: 8%)	
Nc1ncnc2c1ncn2[C@@H]1C=C(CO)[C@@H](O)[C@H]1O [Ex. 13, neplanocin A]		VK(4.5%)	
Nc1nccc2c1ncn2[C@@H]1C=C(CO)[C@@H](O)[C@H]1O [Ex. 14, 3-deazaneplanocin A]		(VK4.2%)	< 5
